Reference: article doi:10.1101/2021.10.17.464745
Results are given in words; binding and its absence hold for the method and conditions named. Binding seen in cells or lysates may run through a third protein. Some binding calls cover weakened binding; strength is not graded here.

Amino acid sequences for entries named in this document (tags omitted).
UniProt P01106: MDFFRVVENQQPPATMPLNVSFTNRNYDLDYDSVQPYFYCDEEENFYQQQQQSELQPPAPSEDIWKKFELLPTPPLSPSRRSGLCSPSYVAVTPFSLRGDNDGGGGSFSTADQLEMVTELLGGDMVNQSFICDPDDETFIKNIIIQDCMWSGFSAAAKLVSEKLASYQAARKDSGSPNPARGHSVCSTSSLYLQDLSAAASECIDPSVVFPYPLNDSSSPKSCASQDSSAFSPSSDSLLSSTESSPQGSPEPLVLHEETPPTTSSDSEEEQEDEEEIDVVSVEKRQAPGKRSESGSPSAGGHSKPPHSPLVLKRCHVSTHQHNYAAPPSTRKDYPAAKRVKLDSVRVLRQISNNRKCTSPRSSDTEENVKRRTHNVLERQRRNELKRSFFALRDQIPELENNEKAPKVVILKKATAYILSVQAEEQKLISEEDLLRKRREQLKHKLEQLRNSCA
UniProt P01108: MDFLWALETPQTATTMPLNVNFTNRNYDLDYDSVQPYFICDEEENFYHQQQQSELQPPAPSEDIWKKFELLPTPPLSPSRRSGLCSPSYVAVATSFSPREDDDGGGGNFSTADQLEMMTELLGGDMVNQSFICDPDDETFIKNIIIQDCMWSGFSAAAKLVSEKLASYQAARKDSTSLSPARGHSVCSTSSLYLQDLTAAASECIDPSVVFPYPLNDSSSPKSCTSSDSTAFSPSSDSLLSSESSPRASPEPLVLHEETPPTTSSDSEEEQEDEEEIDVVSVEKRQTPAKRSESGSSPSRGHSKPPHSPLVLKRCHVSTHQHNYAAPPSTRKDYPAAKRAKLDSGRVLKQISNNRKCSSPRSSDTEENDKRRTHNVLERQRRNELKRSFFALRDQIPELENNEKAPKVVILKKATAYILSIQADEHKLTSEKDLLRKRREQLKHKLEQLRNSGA

How the values were obtained:
[1] = target: T1, phosphoglycerate dehydrogenase (PHGDH), endogenous in human liver cancer cells (human (endogenous in PLC/PRF/5 and Hep3B)) (UniProt O43175); assay: co-IP
T1 sequence: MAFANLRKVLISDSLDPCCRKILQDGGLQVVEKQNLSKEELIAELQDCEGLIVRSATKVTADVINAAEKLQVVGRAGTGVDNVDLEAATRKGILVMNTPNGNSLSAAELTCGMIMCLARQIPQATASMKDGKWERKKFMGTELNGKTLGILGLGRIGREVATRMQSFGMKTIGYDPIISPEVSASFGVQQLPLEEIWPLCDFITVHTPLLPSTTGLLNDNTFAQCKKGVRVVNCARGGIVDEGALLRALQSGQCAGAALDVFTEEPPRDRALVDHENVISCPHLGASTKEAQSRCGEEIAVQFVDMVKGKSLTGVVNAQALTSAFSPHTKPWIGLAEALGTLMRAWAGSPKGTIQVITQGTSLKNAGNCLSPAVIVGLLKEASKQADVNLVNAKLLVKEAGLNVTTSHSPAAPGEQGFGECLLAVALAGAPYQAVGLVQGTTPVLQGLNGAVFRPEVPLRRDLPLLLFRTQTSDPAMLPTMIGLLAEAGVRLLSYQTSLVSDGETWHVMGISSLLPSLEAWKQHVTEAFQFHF

[2] = target: T2, phosphoglycerate dehydrogenase (Phgdh), mouse liver (mouse (endogenous in liver)) (UniProt Q61753); assay: co-IP
T2 sequence: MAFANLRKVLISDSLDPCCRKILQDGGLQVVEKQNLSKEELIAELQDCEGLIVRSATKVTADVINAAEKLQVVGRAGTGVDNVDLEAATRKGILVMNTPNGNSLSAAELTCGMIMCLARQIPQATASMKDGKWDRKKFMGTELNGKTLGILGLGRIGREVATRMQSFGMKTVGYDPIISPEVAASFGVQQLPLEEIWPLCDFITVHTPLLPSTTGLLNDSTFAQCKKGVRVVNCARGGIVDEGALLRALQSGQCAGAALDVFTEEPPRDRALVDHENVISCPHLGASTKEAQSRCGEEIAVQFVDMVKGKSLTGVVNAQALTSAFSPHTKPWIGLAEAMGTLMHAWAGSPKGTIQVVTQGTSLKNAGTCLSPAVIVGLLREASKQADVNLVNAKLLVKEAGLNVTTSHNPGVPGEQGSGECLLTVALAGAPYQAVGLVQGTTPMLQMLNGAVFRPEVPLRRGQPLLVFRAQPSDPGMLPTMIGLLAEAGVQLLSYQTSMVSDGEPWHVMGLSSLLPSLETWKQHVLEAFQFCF

Substance: cMyc, endogenous in human liver cancer cells (from UniProt P01106 1-454)
- binding [1]: binds

Substance: cMyc, mouse liver (from UniProt P01108 1-454)
- binding [2]: binds
